Source: paper PMC7903798
These are yes or no findings as the source states them, for the method shown. In cells and extracts the contact can be indirect. Some binding calls cover weakened binding; strength is not graded here.

The chains behind the UniProt entries cited, without tags or fusion partners.
UniProt Q96LD4: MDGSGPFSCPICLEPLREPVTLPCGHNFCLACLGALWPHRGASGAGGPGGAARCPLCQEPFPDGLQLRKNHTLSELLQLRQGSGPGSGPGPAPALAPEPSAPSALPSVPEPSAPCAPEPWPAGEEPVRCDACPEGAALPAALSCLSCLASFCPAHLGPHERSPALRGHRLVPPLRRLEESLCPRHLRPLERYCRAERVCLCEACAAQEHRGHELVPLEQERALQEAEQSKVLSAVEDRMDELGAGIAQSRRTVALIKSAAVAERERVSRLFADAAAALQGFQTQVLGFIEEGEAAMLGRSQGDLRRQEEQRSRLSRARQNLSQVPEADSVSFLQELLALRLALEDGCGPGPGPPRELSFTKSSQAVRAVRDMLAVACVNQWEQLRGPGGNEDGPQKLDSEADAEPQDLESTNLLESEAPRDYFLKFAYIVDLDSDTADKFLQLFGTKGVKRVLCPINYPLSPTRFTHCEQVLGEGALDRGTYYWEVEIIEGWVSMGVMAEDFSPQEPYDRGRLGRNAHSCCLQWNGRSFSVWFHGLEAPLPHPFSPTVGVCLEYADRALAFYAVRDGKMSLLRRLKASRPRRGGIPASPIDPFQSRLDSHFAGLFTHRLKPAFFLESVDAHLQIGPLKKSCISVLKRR

Target: P53 protein, His-tagged (human) (UniProt P04637)
Test: co-IP; His antibody crosslinked to protein A/G agarose; extract of 769-P cells stably overexpressing His-P53 + Flag-TRIM47 (or His-P53 alone); IgG as control; Western blot detection

## Tripartite motif 47 (TRIM47), Flag-tagged (from UniProt Q96LD4 1-638)
  binding: binds
